Measured values from patent US9168245B2, “Selective protein kinase inhibitors” (AB SCIENCE, priority 2011, dated 2015).
pIC50: −log10 of the molar value. Some results were stated once for a whole list of compounds, not compound by compound. At least one compound was matched to its structure with a doubt left.

Sequences of proteins named here, by UniProt entry; tags and fusion partners are left off. Residues count along the entry.
UniProt P10721, 26-976: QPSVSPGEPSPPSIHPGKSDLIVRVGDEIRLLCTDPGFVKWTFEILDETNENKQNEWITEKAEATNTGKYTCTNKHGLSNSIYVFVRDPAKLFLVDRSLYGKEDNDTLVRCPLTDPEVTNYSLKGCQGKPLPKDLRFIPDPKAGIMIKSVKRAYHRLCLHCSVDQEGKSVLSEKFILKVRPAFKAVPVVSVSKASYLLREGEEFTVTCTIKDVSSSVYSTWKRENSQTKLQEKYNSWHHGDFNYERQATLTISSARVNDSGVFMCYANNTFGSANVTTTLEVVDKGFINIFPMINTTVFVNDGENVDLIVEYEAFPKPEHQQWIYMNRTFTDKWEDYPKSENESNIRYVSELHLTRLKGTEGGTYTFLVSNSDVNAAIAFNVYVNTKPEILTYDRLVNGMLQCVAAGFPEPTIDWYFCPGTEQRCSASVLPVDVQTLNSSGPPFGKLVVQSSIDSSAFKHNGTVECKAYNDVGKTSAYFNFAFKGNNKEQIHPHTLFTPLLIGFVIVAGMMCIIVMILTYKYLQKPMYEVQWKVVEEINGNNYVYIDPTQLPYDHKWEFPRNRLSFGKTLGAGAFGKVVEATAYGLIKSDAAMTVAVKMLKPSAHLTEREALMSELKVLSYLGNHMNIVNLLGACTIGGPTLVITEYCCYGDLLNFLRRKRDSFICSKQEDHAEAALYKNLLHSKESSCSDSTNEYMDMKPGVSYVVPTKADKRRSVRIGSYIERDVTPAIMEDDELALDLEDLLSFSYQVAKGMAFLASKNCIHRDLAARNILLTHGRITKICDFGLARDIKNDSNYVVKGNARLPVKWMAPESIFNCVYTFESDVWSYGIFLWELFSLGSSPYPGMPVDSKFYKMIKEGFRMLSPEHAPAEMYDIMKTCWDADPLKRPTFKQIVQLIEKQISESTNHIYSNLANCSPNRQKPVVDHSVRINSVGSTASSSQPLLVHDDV
UniProt P10721, 26-976 D816V: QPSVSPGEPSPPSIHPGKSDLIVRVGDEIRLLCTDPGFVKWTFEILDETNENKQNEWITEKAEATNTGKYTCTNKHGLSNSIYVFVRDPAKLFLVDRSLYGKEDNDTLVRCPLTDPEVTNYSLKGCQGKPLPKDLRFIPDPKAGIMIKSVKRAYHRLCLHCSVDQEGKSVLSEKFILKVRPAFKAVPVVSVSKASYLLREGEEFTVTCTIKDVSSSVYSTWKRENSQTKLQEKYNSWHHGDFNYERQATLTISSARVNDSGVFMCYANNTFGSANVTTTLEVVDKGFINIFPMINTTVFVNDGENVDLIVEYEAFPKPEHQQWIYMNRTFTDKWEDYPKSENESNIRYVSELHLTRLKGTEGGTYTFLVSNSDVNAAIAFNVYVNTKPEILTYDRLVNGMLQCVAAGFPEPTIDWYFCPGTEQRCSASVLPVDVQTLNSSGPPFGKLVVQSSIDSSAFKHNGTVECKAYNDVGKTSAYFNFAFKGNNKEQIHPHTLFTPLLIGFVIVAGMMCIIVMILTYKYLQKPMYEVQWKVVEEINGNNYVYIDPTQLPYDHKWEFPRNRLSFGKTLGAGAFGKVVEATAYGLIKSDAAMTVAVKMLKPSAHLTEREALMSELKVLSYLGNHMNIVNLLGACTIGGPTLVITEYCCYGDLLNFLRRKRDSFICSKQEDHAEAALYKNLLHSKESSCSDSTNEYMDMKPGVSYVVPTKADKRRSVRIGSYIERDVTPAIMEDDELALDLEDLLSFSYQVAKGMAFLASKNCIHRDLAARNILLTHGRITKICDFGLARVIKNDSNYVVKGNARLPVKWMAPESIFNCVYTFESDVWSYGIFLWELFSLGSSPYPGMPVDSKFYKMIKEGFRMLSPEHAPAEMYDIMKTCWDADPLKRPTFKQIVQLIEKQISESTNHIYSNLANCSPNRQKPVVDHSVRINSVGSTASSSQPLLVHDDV

Tests used:
c-kit WT = target: T1, c-kit WT (Homo sapiens, UniProt P10721); assay: Colorimetric cell proliferation and viability assay (CellTiter-Blue) on BaF3 Kit WT cell line; assay type: cell-based; settings: Ba/F3 cells expressing human Kit WT, stimulated with 250 ng/ml murine SCF, 48 hours incubation
T1 construct: expressed in transfected cells; host or cells: murine Ba/F3 proB lymphoid cells, stimulated with recombinant murine SCF

c-kit D816V = target: T2, c-kit D816V (Homo sapiens, UniProt P10721, D816V); assay: Colorimetric cell proliferation and viability assay (CellTiter-Blue) on BaF3 Kit D816V cell line; assay type: cell-based; settings: Ba/F3 cells expressing human Kit D816V, cytokine independent, 48 hours incubation
T2 construct: expressed in transfected cells; host or cells: murine Ba/F3 proB lymphoid cells, cytokine-independent

Structure (SMILES) | pIC50 (c-kit WT) | pIC50 (c-kit D816V)
CCOCc1ccc(C)c(Nc2ncc(-c3cccc(N4CC(C)NC4=O)c3)o2)c1 (stereo not shown) [Example 055, 1-{3-[2-((5-Ethoxymethyl)-2-methyl-phenylamino)-oxazol-5-yl]-phenyl}-4-methyl-imidazolidin-2-one] | ≥ 6.00 | ≥ 6.00
Cc1cc(-c2cnc(Nc3cc(OCCN4CCOCC4)ccc3C)o2)cc(-n2cc[nH]c2=O)c1 [Example 056, 1-(3-Methyl-5-{2-[2-methyl-5-(2-morpholin-4-yl-ethoxy)-phenylamino]-oxazol-5-yl}-phenyl)-1,3-dihydro-imidazol-2-one] | ≥ 6.00 | ≥ 6.00
CCOCc1ccc(C)c(Nc2ncc(-c3cc(OC)cc(N4CCNC4=O)c3)o2)c1 [Example 058, 1-{3-[2-((5-Ethoxymethyl)-2-methyl-phenylamino)-oxazol-5-yl]-5-methoxy-phenyl}-imidazolidin-2-one] | ≥ 6.00 | ≥ 6.00
Cc1ccc(OCCCN2CCOCC2)cc1Nc1ncc(-c2cccc(N3CCNC3=O)c2)o1 [Example 059, 1-(3-{2-[2-Methyl-5-(3-morpholin-4-yl-propoxy)-phenylamino]-oxazol-5-yl}-phenyl)-imidazolidin-2-one] | ≥ 6.00 | ≥ 6.00
COc1cc(-c2cnc(Nc3cc(OCCN4CCOCC4)ccc3C)o2)cc(N2CCNC2=O)c1 [Example 060, 1-(3-Methoxy-5-{2-[2-methyl-5-(2-morpholin-4-yl-ethoxy)-phenylamino]-oxazol-5-yl}-phenyl)-imidazolidin-2-one] | ≥ 6.00 | ≥ 6.00
CCOCc1ccc(C)c(Nc2ncc(-c3cc(OC)cc(N4CC(C)NC4=O)c3)o2)c1 (stereo not shown) [Example 061, 1-{3-[2-((5-Ethoxymethyl)-2-methyl-phenylamino)-oxazol-5-yl]-5-methoxy-phenyl}-4-methyl-imidazolidin-2-one] | ≥ 6.00 | ≥ 6.00
Cc1cc(-c2cnc(Nc3cc(OCCO)ccc3C)o2)cc(N2CC(C)NC2=O)c1 (stereo not shown) [Example 063, 1-(3-{2-[5-(2-Hydroxy-elhoxy)-2-methyl-phenylamino]-oxazol-5-yl}-5-methyl-phenyl)-4-methyl-imidazolidin-2-one] | ≥ 6.00 | ≥ 6.00
COc1cc(-c2cnc(Nc3cc(OCCO)ccc3C)o2)cc(N2CCNC2=O)c1 [Example 064, 1-(3-{2-[5-(2-Hydroxy-ethoxy)-2-methyl-phenylamino]-oxazol-5-yl}-5-methoxy-phenyl)-imidazolidin-2-one] | ≥ 6.00 | ≥ 6.00
Cc1cc(-c2cnc(Nc3cc(OCCN4CCOCC4)ccc3C)o2)cc(N2CC(C)NC2=O)c1 (stereo not shown) [Example 065, 4-Methyl-1-(3-methyl-5-{2-[2-methyl-5-(2-morpholin-4-yl-ethoxy)-phenylamino]-oxazol-5-yl}-phenyl)-imidazolidin-2-one] | ≥ 6.00 | ≥ 6.00
COc1cc(-c2cnc(Nc3cc(OCCN4CCOCC4)ccc3C)o2)cc(N2CC(C)NC2=O)c1 (stereo not shown) [Example 066, 1-(3-Methoxy-5-{2-[2-methyl-5-(2-morpholin-4-yl-ethoxy)-phenylamino]-oxazol-5-yl}-phenyl)-4-methyl-imidazolidin-2-one] | ≥ 6.00 | ≥ 6.00
COCc1ccc(C)c(Nc2ncc(-c3cc(OC(C)C)cc(N4CCNC4=O)c3)o2)c1 [Example 067, 1-{3-Isopropoxy-5-[2-((5-methoxymethyl)-2-methyl-phenylamino)-oxazol-5-yl]-phenyl}-imidazolidin-2-one] | ≥ 6.00 | ≥ 6.00
COCc1ccc(C)c(Nc2ncc(-c3cc(C)cc(-n4cc[nH]c4=O)c3)o2)c1 [Example 068, 1-{3-[2-((5-Methoxymethyl)-2-methyl-phenylamino)-oxazol-5-yl]-5-methyl-phenyl}-1,3-dihydro-imidazol-2-one] | ≥ 6.00 | ≥ 6.00
COCc1ccc(C)c(Nc2ncc(-c3cccc(-n4cc(C)[nH]c4=O)c3)o2)c1 [Example 069, 1-{3-[2-((5-Methoxymethyl)-2-methyl-phenylamino)-oxazol-5-yl]-phenyl}-4-methyl-1,3-dihydro-imidazol-2-one] | ≥ 6.00 | ≥ 6.00
Cc1cn(-c2cccc(-c3cnc(Nc4cc(OCCO)ccc4C)o3)c2)c(=O)[nH]1 [Example 070, 1-(3-{2-[5-(2-Hydroxy-ethoxy)-2-methyl-phenylamino]-oxazol-5-yl}-phenyl)-4-methyl-1,3-dihydro-imidazol-2-one] | ≥ 6.00 | ≥ 6.00
Cc1ccc(OCCO)cc1Nc1ncc(-c2cc(OC(C)C)cc(N3CCNC3=O)c2)o1 [Example 071, 1-(3-{2-[5-(2-Hydroxy-ethoxy)-2-methyl-phenylamino]-oxazol-5-yl}-5-isopropoxy-phenyl)-imidazolidin-2-one] | ≥ 6.00 | ≥ 6.00
Cc1ccc(OCCN2CCOCC2)cc1Nc1ncc(-c2cc(OC(C)C)cc(N3CCNC3=O)c2)o1 [Example 072, 1-(3-Isopropoxy-5-{2-[2-methyl-5-(2-morpholin-4-yl-ethoxy)-phenylamino]-oxazol-5-yl}-phenyl)-imidazolidin-2-one] | ≥ 6.00 | ≥ 6.00

Structure (SMILES) | pIC50 (c-kit WT) | pIC50 (c-kit D816V)
COCCCOc1ccc(C)c(Nc2ncc(-c3cc(OC)cc(N4CCNC4=O)c3)o2)c1 [Example 075, 1-(3-Methoxy-5-{2-[5-(3-methoxy-propoxy)-2-methyl-phenylamino]-oxazol-5-yl}-phenyl)-imidazolidin-2-one] | ≥ 6.00 | ≥ 6.00
Cc1ccc(COCCO)cc1Nc1ncc(-c2cccc(N3CCNC3=O)c2)o1 [Example 076, 1-(3-{2-[(5-(2-Hydroxy-ethoxymethyl))-2-methyl-phenylamino]-oxazol-5-yl}-phenyl)-imidazolidin-2-one] | ≥ 6.00 | ≥ 6.00
COCCc1ccc(C)c(Nc2ncc(-c3cc(OC(C)C)cc(N4CCNC4=O)c3)o2)c1 [Example 077, 1-(3-Isopropoxy-5-{2-[5-(2-methoxy-ethyl)-2-methyl-phenylamino]-oxazol-5-yl}-phenyl)-imidazolidin-2-one] | ≥ 6.00 | ≥ 6.00
Cc1ccc(CO)cc1Nc1ncc(-c2cc(OC(C)C)cc(N3CCNC3=O)c2)o1 [Example 079, 1-{3-[2-(5-Hydroxymethyl-2-methyl-phenylamino)-oxazol-5-yl]-5-isopropoxy-phenyl}-imidazolidin-2-one] | ≥ 6.00 | ≥ 6.00
Cc1ccc(OCCN2CCOCC2)cc1Nc1ncc(-c2cc(OC(F)(F)F)cc(N3CCNC3=O)c2)o1 [Example 081, 1-(3-(2-(2-methyl-5-(2-morpholinoethoxy)phenylamino)oxazol-5-yl)-5-(trifluoromethoxy)phenyl)imidazolidin-2-one] | ≥ 6.00 | ≥ 6.00
COCc1ccc(C)c(Nc2ncc(-c3cc(O)cc(N4CCNC4=O)c3)o2)c1 [Example 084] | ≥ 6.00 | ≥ 6.00
Cc1ccc(C(N)=O)cc1Nc1ncc(-c2cc(OC(C)C)cc(N3CCNC3=O)c2)o1 [Example 086, 3-{5-[3-Isopropoxy-5-(2-oxo-imidazolidin-1-yl)-phenyl]-oxazol-2-ylamino}-4-methyl-benzamide] | ≥ 6.00 | ≥ 6.00
Cc1cc(-c2cnc(Nc3cc(COCCO)ccc3C)o2)cc(N2CCNC2=O)c1 [Example 087, 1-(3-{2-[5-(2-Hydroxy-ethoxymethyl)-2-methyl-phenylamino]-oxazol-5-yl}-5-methyl-phenyl)-imidazolidin-2-one] | ≥ 6.00 | ≥ 6.00
CCOCc1ccc(C)c(Nc2ncc(-c3cc(OC(F)(F)F)cc(N4CCNC4=O)c3)o2)c1 [Example 092, 1-(3-(2-(5-(ethoxymethyl)-2-methylphenylamino)oxazol-5-yl)-5-(trifluoromethoxy)phenyl) imidazolidin-2-one] | ≥ 6.00 | ≥ 6.00
Cc1ccc(Nc2ccccn2)cc1Nc1ncc(-c2cc(OC(C)C)cc(N3CCNC3=O)c2)o1 [Example 093, 1-(3-Isopropoxy-5-{2-[2-methyl-5-(pyridin-2-ylamino)-phenylamino]-oxazol-5-yl}-phenyl)-imidazolidin-2-one] | ≥ 6.00 | ≥ 6.00
CCOCc1ccc(C)c(Nc2ncc(-c3cc(Cl)cc(N4CCNC4=O)c3)o2)c1 [Example 094, 1-{3-Chloro-5-[2-(5-ethoxymethyl-2-methyl-phenylamino)-oxazol-5-yl]-phenyl}-imidazolidin-2-one] | ≥ 6.00 | ≥ 6.00
Cc1ccc(Nc2ncccn2)cc1Nc1ncc(-c2cc(OC(F)(F)F)cc(N3CCNC3=O)c2)o1 [Example 096, 1-(3-{2-[2-Methyl-5-(pyrimidin-2-ylamino)-phenylamino]-oxazol-5-yl)-5-trifluoromethoxy-phenyl)-imidazolidin-2-one] | ≥ 6.00 | ≥ 6.00
Cc1ccc(Nc2ccccn2)cc1Nc1ncc(-c2cc(OC(F)(F)F)cc(N3CCNC3=O)c2)o1 [Example 097, 1-(3-{2-[2-Methyl-5-(pyridin-2-ylamino)-phenylamino]-oxazol-5-yl}-5-trifluoromethoxy-phenyl)-imidazolidin-2-one] | ≥ 6.00 | ≥ 6.00
Cc1ccc(OCCN(C)C)cc1Nc1ncc(-c2cc(C#N)cc(-c3ccc[nH]c3=O)c2)o1 [Example 110, 3-{2-[5-(2-Dimethylamino-ethoxy)-2-methyl-phenylamino]-oxazol-5-yl}-5-(2-oxo-1,2-dihydro-pyridin-3-yl)-benzonitrile] | ≥ 6.00 | ≥ 6.00
COCCN(C)c1cc(-c2cnc(Nc3cc(OC)cc(OC)c3)o2)cc(-c2ccc[nH]c2=O)c1 [Example 122, 3-{3-[2-(3,5-Dimethoxy-phenylamino)-oxazol-5-yl]-5-[(2-methoxy-ethyl)-methyl-amino]-phenyl}-1H-pyridin-2-one] | ≥ 6.00 | ≥ 6.00
Cc1ccc(C)c(Nc2ncc(-c3cc(-c4ccc[nH]c4=O)cc(N(C)CCN4CCCC4)c3)o2)c1 [Example 123, 3-{3-[2-(2,5-Dimethyl-phenylamino)-oxazol-5-yl]-5-[methyl-(2-pyrrolidin-1-yl-ethyl)-amino]-phenyl}-1H-pyridin-2-one] | ≥ 6.00 | ≥ 6.00
